{"sequences": {"note": "The chains behind the UniProt entries cited, without tags or fusion partners. Where a name states a change or a piece, a line headed by the entry shows the natural chain unless it says otherwise.", "UniProt A0A3Q0KX63": "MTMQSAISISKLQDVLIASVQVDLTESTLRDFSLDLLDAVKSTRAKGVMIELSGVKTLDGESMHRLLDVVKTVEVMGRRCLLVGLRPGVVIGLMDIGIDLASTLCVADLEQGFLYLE"}, "source": "paper PMC9237108", "about": "“The Vibrio vulnificus stressosome is an oxygen-sensor involved in regulating iron metabolism” (Communications Biology, 2022)", "molecules": {"B1": {"name": "VV2_1159 (small STAS-domain protein), bacterial two-hybrid fusion (protein, UniProt A0A3Q0KZS6 1-99)", "chain": "MSVMKEVDKTSNTVTLAIEGAFGFNLVQEFRNAYTEHLNSQFIIDLRKVDYIDSAGLGMLLNMQKHLNSADGRIKIINTLPQVRKILLISRFDKKFHIE"}, "B2": {"name": "VV1_0681 (small STAS-domain protein), bacterial two-hybrid fusion (protein, UniProt A0A3Q0L2H2 1-105)", "chain": "MSHPQWQQSTDEKVSLSGNLDREQVPSLWRFAQTWKPRNSQVEFSLKTVQRVDSAGMVMLIHLLEHAKKQNCHIMLSFVPAQLRTLFQLSNVEAVVAKHIQSYQG"}, "B3": {"name": "VV1_2658 (small STAS-domain protein), bacterial two-hybrid fusion (protein, UniProt A0A3Q0L6B6 1-106)", "chain": "MELSTLDLNQQTLTLSIVGNFDAHGSRQAQIHIDELINNDRHTDIEVDMSGVEFLDSSGIGAIVYLYKRLVERERTMRIENVRGQPLEIISLLRIDHAIPVNSKQF"}}, "assay_in_all_cases": "two-hybrid; bacterial two-hybrid (BACTH), T18 and T25 CyaA fusions co-transformed into E. coli BTH101, X-Gal plates with 0.5 mM IPTG at room temperature for up to three days, aerobic; blue in all three replicates counted as positive", "key": {"[1]": {"target": "VvRsbX (VV2_0076), bacterial two-hybrid fusion (Vibrio vulnificus CMCP6)"}, "[2]": {"target": "VvRsbS (VV2_0074), bacterial two-hybrid fusion (Vibrio vulnificus CMCP6)"}, "[3]": {"target": "VvRsbR (VV2_0073), bacterial two-hybrid fusion (Vibrio vulnificus CMCP6)"}, "[4]": {"target": "VvRsbT (VV2_0075), bacterial two-hybrid fusion (Vibrio vulnificus CMCP6)"}}, "note": "Results are given in words; binding and its absence hold for the method and conditions named. For some of these results: Binding calls can cover weak binding; strength is not graded here. For some of these results: Tags and fused reporters may be left off the sequences shown."}
{"molecule": "VvRsbS (VV2_0074), bacterial two-hybrid fusion (from UniProt A0A3Q0KX63)", "values": [{"measurement": "binding", "setting": "[1]", "result": "binds"}]}
{"molecule": "B1", "values": [{"measurement": "binding", "setting": "[2]", "result": "no binding"}, {"measurement": "binding", "setting": "[3]", "result": "no binding"}, {"measurement": "binding", "setting": "[4]", "result": "no binding"}]}
{"molecule": "B2", "values": [{"measurement": "binding", "setting": "[2]", "result": "no binding"}, {"measurement": "binding", "setting": "[3]", "result": "no binding"}, {"measurement": "binding", "setting": "[4]", "result": "no binding"}]}
{"molecule": "B3", "values": [{"measurement": "binding", "setting": "[2]", "result": "no binding"}, {"measurement": "binding", "setting": "[3]", "result": "no binding"}, {"measurement": "binding", "setting": "[4]", "result": "no binding"}]}
